Numbering of substitutions follows the chain as printed. These are yes or no findings as the source states them, for the method shown. Binding seen in cells or lysates may run through a third protein. Some entries that bind do so weakly or less than the wild type. Where a sequence is shown, tags or fusion partners need not be part of it.
Tests used:
Assay in all cases: split reporter; yeast enhanced monomeric Venus (yEmVenus) protein-fragment complementation assay (PCA); VF[1] and VF[2] fusions co-expressed from p413ADHcen and p415ADHcen in wild-type MatA (BY4741) yeast; fluorescence microscopy of living cells at room temperature with image analysis (threshold 225 against autofluorescence of mock cells); the three Cdc28 PCAs with Swi4, Swi6 and Mbp1 were also read in 30 deletion strains and in elm1T551A
[1] = molecular target: T1, Elm1 yEmVenus PCA fusion protein (S. cerevisiae) (UniProt P32801)
T1 sequence: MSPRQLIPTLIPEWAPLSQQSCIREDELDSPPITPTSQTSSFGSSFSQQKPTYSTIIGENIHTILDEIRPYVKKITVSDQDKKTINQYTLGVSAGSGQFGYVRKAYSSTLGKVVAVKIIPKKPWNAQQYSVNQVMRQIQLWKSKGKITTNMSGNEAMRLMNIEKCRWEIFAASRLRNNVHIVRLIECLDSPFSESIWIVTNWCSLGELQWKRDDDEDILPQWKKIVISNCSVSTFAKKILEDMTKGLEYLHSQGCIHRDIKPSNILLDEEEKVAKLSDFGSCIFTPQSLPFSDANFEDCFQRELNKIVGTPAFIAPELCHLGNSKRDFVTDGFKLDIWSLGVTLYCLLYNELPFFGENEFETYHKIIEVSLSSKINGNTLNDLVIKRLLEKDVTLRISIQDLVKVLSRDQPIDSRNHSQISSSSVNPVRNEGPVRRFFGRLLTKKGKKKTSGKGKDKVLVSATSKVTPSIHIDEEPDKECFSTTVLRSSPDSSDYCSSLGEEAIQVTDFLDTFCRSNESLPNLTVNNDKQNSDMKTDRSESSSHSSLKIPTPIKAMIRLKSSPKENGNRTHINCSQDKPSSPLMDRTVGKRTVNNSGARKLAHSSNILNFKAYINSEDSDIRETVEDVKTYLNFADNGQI

By UniProt entry, the sequences of proteins in these tests, tags left out.
UniProt P00546: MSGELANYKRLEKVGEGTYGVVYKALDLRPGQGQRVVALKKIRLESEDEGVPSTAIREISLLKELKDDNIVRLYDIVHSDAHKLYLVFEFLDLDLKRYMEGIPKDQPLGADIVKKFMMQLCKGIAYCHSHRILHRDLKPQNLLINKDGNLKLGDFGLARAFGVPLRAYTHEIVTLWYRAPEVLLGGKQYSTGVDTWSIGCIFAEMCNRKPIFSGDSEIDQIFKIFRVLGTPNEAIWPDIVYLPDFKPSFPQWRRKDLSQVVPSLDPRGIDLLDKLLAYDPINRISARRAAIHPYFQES

[2] = molecular target: T2, Mbp1 yEmVenus PCA fusion protein (S. cerevisiae) (UniProt P39678)
T2 sequence: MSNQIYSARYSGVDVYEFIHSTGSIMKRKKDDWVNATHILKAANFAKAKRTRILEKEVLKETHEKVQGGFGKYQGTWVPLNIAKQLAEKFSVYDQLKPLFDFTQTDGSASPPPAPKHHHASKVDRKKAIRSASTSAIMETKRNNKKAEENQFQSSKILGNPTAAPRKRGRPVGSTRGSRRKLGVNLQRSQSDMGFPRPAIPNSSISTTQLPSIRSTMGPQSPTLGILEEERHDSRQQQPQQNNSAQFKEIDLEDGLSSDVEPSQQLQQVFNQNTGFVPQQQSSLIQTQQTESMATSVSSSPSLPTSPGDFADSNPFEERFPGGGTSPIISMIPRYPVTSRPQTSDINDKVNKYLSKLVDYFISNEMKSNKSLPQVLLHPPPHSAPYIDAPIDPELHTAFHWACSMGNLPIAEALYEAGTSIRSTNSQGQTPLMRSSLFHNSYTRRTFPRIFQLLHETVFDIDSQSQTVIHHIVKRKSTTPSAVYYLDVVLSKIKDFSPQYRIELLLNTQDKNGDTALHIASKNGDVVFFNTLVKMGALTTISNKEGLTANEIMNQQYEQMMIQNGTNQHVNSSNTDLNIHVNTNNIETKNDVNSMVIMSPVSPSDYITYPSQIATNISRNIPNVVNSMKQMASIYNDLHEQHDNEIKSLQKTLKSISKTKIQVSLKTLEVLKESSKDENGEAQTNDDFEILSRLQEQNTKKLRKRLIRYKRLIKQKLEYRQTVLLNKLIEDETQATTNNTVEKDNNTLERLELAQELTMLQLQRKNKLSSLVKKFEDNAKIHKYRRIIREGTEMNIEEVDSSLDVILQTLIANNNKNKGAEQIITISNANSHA

[3] = molecular target: T3, elm1T551A yEmVenus PCA fusion protein (S. cerevisiae) (UniProt P32801)
T3 sequence: T1 sequence with T551A

- binding [1]: binds
- binding [2]: binds
- binding [3]: binds
Substance: Cdc28-VF[1] fusion protein (from UniProt P00546 1-298) (enzyme)

From paper PMC2198942
